PubChem BioAssay AID1259425 – University of Nebraska Medical Center, 2018

Test: 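Compare each knockdown with KSR1 silencing using changes in marker transcripts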 (primary screen)
System: HCT116 human colon cancer cells
Reagents: siRNA pool against human genes, 50 nM siRNA
Measured: 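mRNA of six signature genes measured together by branched-DNA assay after 50 nM siRNA pool, blank removed, divided by geometric mean of two housekeeping genes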
Reading the numbers: BNIP3L mRNA: higher = more BNIP3L transcript after knockdown; NDRG1 mRNA: higher = more NDRG1 transcript after knockdown; BNIP3 mRNA: higher = more BNIP3 transcript after knockdown; ALDOC mRNA: higher = more ALDOC transcript after knockdown; ACSL5 mRNA: higher = more ACSL5 transcript after knockdown
In all, the deposit lists about 14,000 reagents; this is a random part of them. The numbers tell different reagents against one gene apart. Not given: the time to read-out.

| gene | reagent no. | BNIP3L mRNA, set 1 | NDRG1 mRNA, set 1 | BNIP3 mRNA, set 1 | ALDOC mRNA, set 1 | ACSL5 mRNA, set 1 |
| --- | --- | --- | --- | --- | --- | --- |
| TMEM60 (transmembrane protein 60) | 1 | 0.148 | 0.331 | 0.26 | 0.0473 | 0.412 |
| ITPK1 (inositol-tetrakisphosphate 1-kinase) | 1 | 0.187 | 0.0905 | 0.328 | 0.0294 | 0.202 |
| NRL (neural retina leucine zipper) | 1 | 0.106 | 0.0857 | 0.222 | 0.0258 | 0.253 |
| GSTA3 (glutathione S-transferase alpha 3) | 1 | 0.0748 | 0.0632 | 0.149 | 0.0142 | 0.0472 |
| FHL3 (four and a half LIM domains 3) | 1 | 0.113 | 0.336 | 0.305 | 0.0668 | 0.157 |
| COBL (cordon-bleu WH2 repeat protein) | 1 | 0.158 | 0.608 | 0.284 | 0.0646 | 0.289 |
| FCN3 (ficolin 3) | 1 | 0.106 | 0.373 | 0.351 | 0.0545 | 0.126 |
| SLC13A3 | 1 | 0.125 | 0.411 | 0.314 | 0.0306 | 0.139 |
| NLRX1 (NLR family member X1) | 1 | 0.148 | 0.292 | 0.492 | 0.0585 | 0.232 |
| ALDH3B2 (aldehyde dehydrogenase 3 family member B2) | 1 | 0.0438 | 0.0535 | 0.28 | 0.0287 | 0.111 |
| SCAF11 (SR-related CTD associated factor 11) | 1 | 0.118 | 0.142 | 0.291 | 0.0246 | 0.15 |
| HPCAL1 (hippocalcin like 1) | 1 | 0.0923 | 0.114 | 0.228 | 0.01 | 0.108 |
| MAGEA4 (MAGE family member A4) | 1 | 0.115 | 0.619 | 0.213 | 0.0208 | 0.271 |
| TMED7 (transmembrane p24 trafficking protein 7) | 1 | 0.134 | 0.262 | 0.363 | 0.0239 | 0.338 |
| ARRDC3 (arrestin domain containing 3) | 1 | 0.155 | 0.459 | 0.3 | 0.0266 | 0.349 |
| RSPH14 (radial spoke head 14 homolog) | 1 | 0.0618 | 0.108 | 0.262 | 0.0271 | 0.18 |
| MATR3 (matrin 3) | 1 | 0.045 | 0.102 | 0.33 | 0.0237 | 0.129 |
| LRP2 (LDL receptor related protein 2) | 1 | 0.135 | 0.271 | 0.208 | 0.0443 | 0.162 |
| RAD18 (RAD18 E3 ubiquitin protein ligase) | 1 | 0.0727 | 0.155 | 0.209 | 0.0475 | 0.112 |
| PIM1 (Pim-1 proto-oncogene, serine/threonine kinase) | 1 | 0.111 | 0.16 | 0.24 | 0.0137 | 0.118 |
| PCYT1A (phosphate cytidylyltransferase 1A, choline) | 1 | 0.052 | 0.268 | 0.413 | 0.0374 | 0.096 |
| LY6G5B (lymphocyte antigen 6 family member G5B) | 1 | 0.136 | 0.116 | 0.123 | 0.0201 | 0.26 |
| NR1I3 (nuclear receptor subfamily 1 group I member 3) | 1 | 0.087 | 0.0767 | 0.272 | 0.0119 | 0.103 |
| GAD2 (glutamate decarboxylase 2) | 1 | 0.0891 | 0.665 | 0.291 | 0.016 | 0.344 |
| PTPRG (protein tyrosine phosphatase receptor type G) | 1 | 0.0893 | 0.0804 | 0.339 | 0.00688 | 0.187 |
| PIK3C2G | 1 | 0.138 | 0.093 | 0.353 | 0.0108 | 0.198 |
| KDM4D (lysine demethylase 4D) | 1 | 0.0701 | 0.281 | 0.347 | 0.0268 | 0.156 |
| ACP6 (acid phosphatase 6, lysophosphatidic) | 1 | 0.106 | 0.157 | 0.46 | 0.0174 | 0.258 |
| PUF60 (poly(U) binding splicing factor 60) | 1 | 0.115 | 0.185 | 0.181 | 0.0541 | 0.11 |
| SUPT4H1 (SPT4 homolog, DSIF elongation factor subunit) | 1 | 0.17 | 0.16 | 0.549 | 0.0387 | 0.337 |
| CASKIN2 (CASK interacting protein 2) | 1 | 0.0776 | 0.106 | 0.256 | 0.00955 | 0.249 |
| UNC93B1 (unc-93B1 regulator of TLR signaling) | 1 | 0.133 | 0.148 | 0.363 | 0.0202 | 0.234 |
| IDI2-AS1 (IDI2 antisense RNA 1) | 1 | 0.17 | 0.297 | 0.575 | 0.0686 | 0.266 |
| RABGAP1L (RAB GTPase activating protein 1 like) | 1 | 0.0967 | 0.329 | 0.32 | 0.0231 | 0.218 |
| TMCC3 (transmembrane and coiled-coil domain family 3) | 1 | 0.106 | 0.265 | 0.354 | 0.0211 | 0.432 |
| ADAMTS19 (ADAM metallopeptidase with thrombospondin type 1 motif 19) | 1 | 0.081 | 0.205 | 0.282 | 0.0238 | 0.175 |
| WDR91 (WD repeat domain 91) | 1 | 0.3 | 1.03 | 0.517 | 0.0647 | 0.175 |
| COL18A1 (collagen type XVIII alpha 1 chain) | 1 | 0.0774 | 0.289 | 0.286 | 0.0181 | 0.148 |
| NDUFB3 (NADH:ubiquinone oxidoreductase subunit B3) | 1 | 0.125 | 1.13 | 0.397 | 0.0278 | 0.382 |
| HMBS (hydroxymethylbilane synthase) | 1 | 0.0705 | 0.186 | 0.267 | 0.0178 | 0.176 |
| FLNB (filamin B) | 1 | 0.0553 | 0.0696 | 0.343 | -0.00023 | 0.114 |
| PDIA5 (protein disulfide isomerase family A member 5) | 1 | 0.0872 | 0.451 | 0.138 | 0.0126 | 0.11 |
| PABPC1 (poly(A) binding protein cytoplasmic 1) | 1 | 0.153 | 2.06 | 0.706 | 0.0296 | 0.264 |
| UMOD (uromodulin) | 1 | 0.133 | 0.262 | 0.32 | 0.0313 | 0.165 |
| NBN (nibrin) | 1 | 0.0754 | 0.127 | 0.16 | 0.0137 | 0.256 |
| CSTF1 (cleavage stimulation factor subunit 1) | 1 | 0.1 | 0.124 | 0.358 | 0.0223 | 0.183 |
| USP13 (ubiquitin specific peptidase 13) | 1 | 0.0461 | 0.0961 | 0.175 | 0.019 | 0.132 |
| EPHB3 (EPH receptor B3) | 1 | 0.202 | 0.311 | 0.518 | 0.0544 | 0.414 |
| CRYGS (crystallin gamma S) | 1 | 0.129 | 0.136 | 0.302 | 0.0353 | 0.117 |
| SART3 (spliceosome associated factor 3, U4/U6 recycling protein) | 1 | 0.0811 | 0.122 | 0.231 | 0.0209 | 0.135 |
| HLA-DQA1 (major histocompatibility complex, class II, DQ alpha 1) | 1 | 0.117 | 0.129 | 0.194 | 0.0285 | 0.0449 |
| STK32A (serine/threonine kinase 32A) | 1 | 0.115 | 0.0952 | 0.31 | 0.00984 | 0.105 |
| RPA4 (replication protein A4) | 1 | 0.121 | 0.185 | 0.343 | 0.0178 | 0.133 |
| PRRX2 (paired related homeobox 2) | 1 | 0.184 | 0.377 | 0.489 | -0.000177 | 0.227 |
| EIF4G1 (eukaryotic translation initiation factor 4 gamma 1) | 1 | 0.0243 | 0.22 | 0.379 | 0.0365 | 0.267 |
| GFOD1 (Gfo/Idh/MocA-like oxidoreductase domain containing 1) | 1 | 0.172 | 0.271 | 0.215 | 0.0142 | 0.0703 |
| GFOD1 (Gfo/Idh/MocA-like oxidoreductase domain containing 1) | 2 | 0.125 | 0.139 | 0.24 | 0.0348 | 0.257 |
| HUS1 (HUS1 checkpoint clamp component) | 1 | 0.245 | 0.0875 | 0.606 | 0.0702 | 0.124 |
| AKR1A1 (aldo-keto reductase family 1 member A1) | 1 | 0.126 | 0.106 | 0.417 | 0.0551 | 0.0914 |
| CPEB4 (cytoplasmic polyadenylation element binding protein 4) | 1 | 0.165 | 0.305 | 0.406 | 0.0418 | 0.286 |
| SCNM1 (sodium channel modifier 1) | 1 | 0.346 | 0.888 | 0.75 | 0.158 | 0.736 |
| SMOX (spermine oxidase) | 1 | 0.141 | 0.111 | 0.164 | 0.0401 | 0.154 |
| TRIB1 (tribbles pseudokinase 1) | 1 | 0.107 | 0.152 | 0.365 | 0.00585 | 0.185 |
